Experimental data from US20240299542A1, “NATURAL KILLER CELLS ENGINEERED TO REDUCE OR ELIMINATE CBL-B AND USES THEREOF” (City of Hope, priority 2021, published 2024).
Some entries share one result that the patent states for a list of compounds.

Tested on: Cbl-b
Assay: Cbl-b mRNA by qRT-PCR after IL-15 or IL-2 treatment of primary human NK cells
Format: cell-based
Settings: IL-15 (10 ng/ml) or IL-2 (150 IU/ml), compared to unstimulated NK cells

“IL-15: Recombinant human IL-15 protein obtained from National Institutes of Health” was tested, and the “time at which Cbl-b mRNA was increased” value was at most 2 h.
